# From the supplement of paper PMC11438910
# This is one part of the list. Only a few entries rise above the background.
# B1: 4-173.4 (protein)
# chain 1: QLQLQESGPGLVKPSETLSLTCAVSGGSISSHYWSWIRQPPGKGLEWIGRFSAGGGSTDYNPSLKSRVTISTDTSKNQFTLNLNSVTAADTAVYYCTRGSYTSDYWGQGVLVTVSS
# chain 2: QAALTQSPSVSGSPGQSVTISCTGTSSDIGGYIRVSWYQQHPGKAPKLMIYEVSKRPSGVSDRFSGSKSGNTASLTISGLQAEDEADYYCFSYARGDTVLLGGGTRLTVL
# Key:
# Experiment in all cases: fluorescence intensity of antibody binding to polysaccharide-coupled beads; higher = stronger binding
# [1] = target: pneumococcal polysaccharide Pn35C
# [2] = target: pneumococcal polysaccharide Pn35F
# [3] = target: pneumococcal polysaccharide Pn36
# [4] = target: pneumococcal polysaccharide Pn37
# [5] = target: pneumococcal polysaccharide Pn38
# [6] = target: pneumococcal polysaccharide Pn39
# [7] = target: pneumococcal polysaccharide Pn4
# [8] = target: pneumococcal polysaccharide Pn40
# [9] = target: pneumococcal polysaccharide Pn41A
# [10] = target: pneumococcal polysaccharide Pn41F
# [11] = target: pneumococcal polysaccharide Pn42
# [12] = target: pneumococcal polysaccharide Pn43
# [13] = target: pneumococcal polysaccharide Pn44
# [14] = target: pneumococcal polysaccharide Pn45
# [15] = target: pneumococcal polysaccharide Pn46
# [16] = target: pneumococcal polysaccharide Pn47A
# [17] = target: pneumococcal polysaccharide Pn47F
# [18] = target: pneumococcal polysaccharide Pn48
# [19] = target: pneumococcal polysaccharide Pn5
# [20] = target: pneumococcal polysaccharide Pn6A
# [21] = target: pneumococcal polysaccharide Pn6B
# [22] = target: pneumococcal polysaccharide Pn6C
# [23] = target: pneumococcal polysaccharide Pn6D
# [24] = target: pneumococcal polysaccharide Pn7A
# [25] = antibody concentration 2337.65 ng/mL
# [26] = antibody concentration 12500 ng/mL
# [27] = antibody concentration 0.1 ng/mL
# [28] = antibody concentration 0.534724 ng/mL
# [29] = antibody concentration 2.8593 ng/mL
# [30] = antibody concentration 15.2894 ng/mL
# [31] = antibody concentration 81.7561 ng/mL
# [32] = antibody concentration 437.17 ng/mL
binder,measurement,setting,value
B1,fluorescence intensity,[1]; [25],21 MFI
same,fluorescence intensity,[1]; [26],22 MFI
same,fluorescence intensity,[2]; [27],17.5 MFI
same,fluorescence intensity,[2]; [28],19.8 MFI
same,fluorescence intensity,[2]; [29],17 MFI
same,fluorescence intensity,[2]; [30],20 MFI
same,fluorescence intensity,[2]; [31],17.5 MFI
same,fluorescence intensity,[2]; [32],20.8 MFI
same,fluorescence intensity,[2]; [25],19.5 MFI
same,fluorescence intensity,[2]; [26],21 MFI
same,fluorescence intensity,[3]; [27],15 MFI
same,fluorescence intensity,[3]; [28],16.5 MFI
same,fluorescence intensity,[3]; [29],15.5 MFI
same,fluorescence intensity,[3]; [30],15.5 MFI
same,fluorescence intensity,[3]; [31],17 MFI
same,fluorescence intensity,[3]; [32],18 MFI
same,fluorescence intensity,[3]; [25],19 MFI
same,fluorescence intensity,[3]; [26],47 MFI
same,fluorescence intensity,[4]; [27],26.2 MFI
same,fluorescence intensity,[4]; [28],25 MFI
same,fluorescence intensity,[4]; [29],26 MFI
same,fluorescence intensity,[4]; [30],27 MFI
same,fluorescence intensity,[4]; [31],26.5 MFI
same,fluorescence intensity,[4]; [32],29.5 MFI
same,fluorescence intensity,[4]; [25],41.8 MFI
same,fluorescence intensity,[4]; [26],156 MFI
same,fluorescence intensity,[5]; [27],24.5 MFI
same,fluorescence intensity,[5]; [28],24.8 MFI
same,fluorescence intensity,[5]; [29],25 MFI
same,fluorescence intensity,[5]; [30],25.5 MFI
same,fluorescence intensity,[5]; [31],26.5 MFI
same,fluorescence intensity,[5]; [32],25.5 MFI
same,fluorescence intensity,[5]; [25],26.5 MFI
same,fluorescence intensity,[5]; [26],33.5 MFI
same,fluorescence intensity,[6]; [27],18 MFI
same,fluorescence intensity,[6]; [28],18.8 MFI
same,fluorescence intensity,[6]; [29],18.5 MFI
same,fluorescence intensity,[6]; [30],17.8 MFI
same,fluorescence intensity,[6]; [31],17.5 MFI
same,fluorescence intensity,[6]; [32],19 MFI
same,fluorescence intensity,[6]; [25],19 MFI
same,fluorescence intensity,[6]; [26],31.5 MFI
same,fluorescence intensity,[7]; [27],17 MFI
same,fluorescence intensity,[7]; [28],18.5 MFI
same,fluorescence intensity,[7]; [29],19 MFI
same,fluorescence intensity,[7]; [30],18 MFI
same,fluorescence intensity,[7]; [31],19 MFI
same,fluorescence intensity,[7]; [32],22.8 MFI
same,fluorescence intensity,[7]; [25],25.5 MFI
same,fluorescence intensity,[7]; [26],36.8 MFI
same,fluorescence intensity,[8]; [27],18.2 MFI
same,fluorescence intensity,[8]; [28],17 MFI
same,fluorescence intensity,[8]; [29],16.8 MFI
same,fluorescence intensity,[8]; [30],16.5 MFI
same,fluorescence intensity,[8]; [31],16 MFI
same,fluorescence intensity,[8]; [32],17.2 MFI
same,fluorescence intensity,[8]; [25],21.8 MFI
same,fluorescence intensity,[8]; [26],54.2 MFI
same,fluorescence intensity,[9]; [27],23 MFI
same,fluorescence intensity,[9]; [28],25 MFI
same,fluorescence intensity,[9]; [29],25 MFI
same,fluorescence intensity,[9]; [30],24 MFI
same,fluorescence intensity,[9]; [31],23.5 MFI
same,fluorescence intensity,[9]; [32],25.5 MFI
same,fluorescence intensity,[9]; [25],25 MFI
same,fluorescence intensity,[9]; [26],32.8 MFI
same,fluorescence intensity,[10]; [27],12.5 MFI
same,fluorescence intensity,[10]; [28],13 MFI
same,fluorescence intensity,[10]; [29],12 MFI
same,fluorescence intensity,[10]; [30],12.8 MFI
same,fluorescence intensity,[10]; [31],12 MFI
same,fluorescence intensity,[10]; [32],14 MFI
same,fluorescence intensity,[10]; [25],16 MFI
same,fluorescence intensity,[10]; [26],20.8 MFI
same,fluorescence intensity,[11]; [27],12 MFI
same,fluorescence intensity,[11]; [28],12 MFI
same,fluorescence intensity,[11]; [29],12 MFI
same,fluorescence intensity,[11]; [30],12 MFI
same,fluorescence intensity,[11]; [31],12 MFI
same,fluorescence intensity,[11]; [32],12 MFI
same,fluorescence intensity,[11]; [25],12.5 MFI
same,fluorescence intensity,[11]; [26],24.5 MFI
same,fluorescence intensity,[12]; [27],15 MFI
same,fluorescence intensity,[12]; [28],15.2 MFI
same,fluorescence intensity,[12]; [29],16 MFI
same,fluorescence intensity,[12]; [30],15.5 MFI
same,fluorescence intensity,[12]; [31],17 MFI
same,fluorescence intensity,[12]; [32],18.5 MFI
same,fluorescence intensity,[12]; [25],23 MFI
same,fluorescence intensity,[12]; [26],96 MFI
same,fluorescence intensity,[13]; [27],24.5 MFI
same,fluorescence intensity,[13]; [28],25.5 MFI
same,fluorescence intensity,[13]; [29],26.8 MFI
same,fluorescence intensity,[13]; [30],25.8 MFI
same,fluorescence intensity,[13]; [31],25.8 MFI
same,fluorescence intensity,[13]; [32],28.5 MFI
same,fluorescence intensity,[13]; [25],28 MFI
same,fluorescence intensity,[13]; [26],35.5 MFI
same,fluorescence intensity,[14]; [27],10.5 MFI
same,fluorescence intensity,[14]; [28],11.5 MFI
same,fluorescence intensity,[14]; [29],11 MFI
same,fluorescence intensity,[14]; [30],10.5 MFI
same,fluorescence intensity,[14]; [31],11.5 MFI
same,fluorescence intensity,[14]; [32],11.5 MFI
same,fluorescence intensity,[14]; [25],12.5 MFI
same,fluorescence intensity,[14]; [26],17 MFI
same,fluorescence intensity,[15]; [27],22.5 MFI
same,fluorescence intensity,[15]; [28],24.2 MFI
same,fluorescence intensity,[15]; [29],24.5 MFI
same,fluorescence intensity,[15]; [30],23.5 MFI
same,fluorescence intensity,[15]; [31],24.5 MFI
same,fluorescence intensity,[15]; [32],26.5 MFI
same,fluorescence intensity,[15]; [25],26.5 MFI
same,fluorescence intensity,[15]; [26],47.5 MFI
same,fluorescence intensity,[16]; [27],15.2 MFI
same,fluorescence intensity,[16]; [28],14.5 MFI
same,fluorescence intensity,[16]; [29],16.5 MFI
same,fluorescence intensity,[16]; [30],16 MFI
same,fluorescence intensity,[16]; [31],15 MFI
same,fluorescence intensity,[16]; [32],15.5 MFI
same,fluorescence intensity,[16]; [25],17 MFI
same,fluorescence intensity,[16]; [26],22.8 MFI
same,fluorescence intensity,[17]; [27],12 MFI
same,fluorescence intensity,[17]; [28],12.5 MFI
same,fluorescence intensity,[17]; [29],12.5 MFI
same,fluorescence intensity,[17]; [30],11 MFI
same,fluorescence intensity,[17]; [31],13 MFI
same,fluorescence intensity,[17]; [32],12.8 MFI
same,fluorescence intensity,[17]; [25],13.5 MFI
same,fluorescence intensity,[17]; [26],39.5 MFI
same,fluorescence intensity,[18]; [27],22 MFI
same,fluorescence intensity,[18]; [28],20.5 MFI
same,fluorescence intensity,[18]; [29],21 MFI
same,fluorescence intensity,[18]; [30],21 MFI
same,fluorescence intensity,[18]; [31],20.5 MFI
same,fluorescence intensity,[18]; [32],26 MFI
same,fluorescence intensity,[18]; [25],28.5 MFI
same,fluorescence intensity,[18]; [26],45.8 MFI
same,fluorescence intensity,[19]; [27],8.5 MFI
same,fluorescence intensity,[19]; [28],9 MFI
same,fluorescence intensity,[19]; [29],10 MFI
same,fluorescence intensity,[19]; [30],9.75 MFI
same,fluorescence intensity,[19]; [31],8.5 MFI
same,fluorescence intensity,[19]; [32],10.5 MFI
same,fluorescence intensity,[19]; [25],12.5 MFI
same,fluorescence intensity,[19]; [26],38.8 MFI
same,fluorescence intensity,[20]; [27],21.5 MFI
same,fluorescence intensity,[20]; [28],21.5 MFI
same,fluorescence intensity,[20]; [29],19.5 MFI
same,fluorescence intensity,[20]; [30],21.5 MFI
same,fluorescence intensity,[20]; [31],22.5 MFI
same,fluorescence intensity,[20]; [32],25.5 MFI
same,fluorescence intensity,[20]; [25],25.2 MFI
same,fluorescence intensity,[20]; [26],37 MFI
same,fluorescence intensity,[21]; [27],19 MFI
same,fluorescence intensity,[21]; [28],18.5 MFI
same,fluorescence intensity,[21]; [29],20 MFI
same,fluorescence intensity,[21]; [30],20 MFI
same,fluorescence intensity,[21]; [31],17.5 MFI
same,fluorescence intensity,[21]; [32],21.5 MFI
same,fluorescence intensity,[21]; [25],25 MFI
same,fluorescence intensity,[21]; [26],34.5 MFI
same,fluorescence intensity,[22]; [27],24 MFI
same,fluorescence intensity,[22]; [28],47.2 MFI
same,fluorescence intensity,[22]; [29],53.5 MFI
same,fluorescence intensity,[22]; [30],59.8 MFI
same,fluorescence intensity,[22]; [31],60.5 MFI
same,fluorescence intensity,[22]; [32],67 MFI
same,fluorescence intensity,[22]; [25],76.8 MFI
same,fluorescence intensity,[22]; [26],68.5 MFI
same,fluorescence intensity,[23]; [27],17 MFI
same,fluorescence intensity,[23]; [28],17 MFI
same,fluorescence intensity,[23]; [29],17.8 MFI
same,fluorescence intensity,[23]; [30],16.8 MFI
same,fluorescence intensity,[23]; [31],18.5 MFI
same,fluorescence intensity,[23]; [32],16.5 MFI
same,fluorescence intensity,[23]; [25],19.8 MFI
same,fluorescence intensity,[23]; [26],23 MFI
same,fluorescence intensity,[24]; [27],19.2 MFI
same,fluorescence intensity,[24]; [28],19.8 MFI

# Taken from the entries so far (3 entries):
binder,measurement,setting,value
B1,fluorescence intensity,[10]; [28],13 MFI
same,fluorescence intensity,[10]; [29],12 MFI
same,fluorescence intensity,[10]; [30],12.8 MFI

# 6 records drawn at random from those above, as already listed:
binder,measurement,setting,value
B1,fluorescence intensity,[13]; [31],25.8 MFI
same,fluorescence intensity,[14]; [25],12.5 MFI
same,fluorescence intensity,[17]; [30],11 MFI
same,fluorescence intensity,[16]; [25],17 MFI
same,fluorescence intensity,[9]; [31],23.5 MFI
same,fluorescence intensity,[16]; [31],15 MFI

# Exported as tab-separated lines: part of the list above
binder	measurement	setting	value
B1	fluorescence intensity	[5]; [27]	24.5 MFI
same	fluorescence intensity	[15]; [30]	23.5 MFI
